{"source": "patent US20150224191A1", "about": "(VEGENICS, published 2015)", "key": {"VEGF-C": {"target": "T1, VEGF-C (human, UniProt P49767 103-227, limits assumed)", "T1 sequence": "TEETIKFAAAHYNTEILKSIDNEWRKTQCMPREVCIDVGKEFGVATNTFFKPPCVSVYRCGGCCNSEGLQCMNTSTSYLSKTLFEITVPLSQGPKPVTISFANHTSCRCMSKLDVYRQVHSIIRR", "assay": "direct binding ELISA, VEGF-C as capture antigen, detection with rabbit anti-human IgG-HRP"}, "VEGF-C Monomer": {"target": "T2, VEGF-C Monomer", "T2 construct": "a form of m2; also called monomer form of VEGF-C", "T2 chain": "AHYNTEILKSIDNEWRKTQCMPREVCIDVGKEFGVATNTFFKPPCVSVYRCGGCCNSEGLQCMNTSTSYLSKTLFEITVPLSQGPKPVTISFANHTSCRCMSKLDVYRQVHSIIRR", "assay": "direct binding ELISA, antigen coated as capture antigen, bound VGX-100 detected with rabbit anti-human IgG-HRP, Abs 450 nm"}}, "note": "Results are given in words; binding and its absence hold for the method and conditions named. Some binding calls cover weakened binding; strength is not graded here.", "data": [{"binder": "VEGF-C antibody VGX-100 (antibody, human IgG1, lambda, V domains shown) VH: EVRLLESGGGLVQPGGSLRLSCAASGFTFRPRAMAWVRQAPGKGLEWVSSISAQGASAYYADSVKGRFTISRDNSKNTLYLQMNSLRAEDTAVYYCARDLSVSGFGPWGRGTMVTVSS VL: SYELTQPPSSSGTPGQRVTISCSGSSSNIGRHTVSWYQQVPGTAPKLLIYSDDHRPSGVPDRFSASKSGTSASLTITGLQSEDEADYYCAAWDDSLNGPWVFGGGTKLTVLG", "values": [{"measurement": "binding", "setting": "VEGF-C", "result": "binds"}, {"measurement": "binding", "setting": "VEGF-C Monomer", "result": "binds"}]}]}
